Results are given in words; binding and its absence hold for the method and conditions named. In cells and extracts the contact can be indirect. A yes stands for co-enrichment or nearness to the bait. Other partners may have been found. Sequences can lack the tags named with a protein.

Protein sequences, listed by entry. Tags and fused reporters are not part of them.
UniProt P09144: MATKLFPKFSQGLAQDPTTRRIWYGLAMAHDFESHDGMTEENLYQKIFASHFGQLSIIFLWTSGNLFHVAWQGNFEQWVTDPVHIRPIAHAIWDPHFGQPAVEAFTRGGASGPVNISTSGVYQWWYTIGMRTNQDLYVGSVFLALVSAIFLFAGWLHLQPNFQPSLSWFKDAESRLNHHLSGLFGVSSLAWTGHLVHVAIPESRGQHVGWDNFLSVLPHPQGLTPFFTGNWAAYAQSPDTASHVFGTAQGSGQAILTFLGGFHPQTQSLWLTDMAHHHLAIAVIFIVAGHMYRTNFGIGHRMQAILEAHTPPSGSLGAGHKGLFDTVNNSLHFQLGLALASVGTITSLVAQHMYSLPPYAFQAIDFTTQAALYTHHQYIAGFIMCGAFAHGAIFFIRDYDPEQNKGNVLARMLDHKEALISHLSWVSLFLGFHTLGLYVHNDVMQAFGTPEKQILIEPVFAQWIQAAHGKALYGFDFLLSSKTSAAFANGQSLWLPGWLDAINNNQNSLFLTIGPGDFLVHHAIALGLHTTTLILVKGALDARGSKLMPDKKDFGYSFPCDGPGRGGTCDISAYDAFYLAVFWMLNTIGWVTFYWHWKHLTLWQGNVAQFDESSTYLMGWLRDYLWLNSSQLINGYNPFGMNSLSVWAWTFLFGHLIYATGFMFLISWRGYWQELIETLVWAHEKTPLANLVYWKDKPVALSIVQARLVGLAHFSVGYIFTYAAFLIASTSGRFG

Test [1] has as its target T1, Ycf3 fused with HA-tag at the C-terminus (Ycf3-HA) (C. reinhardtii) (UniProt O20031).
T1 sequence: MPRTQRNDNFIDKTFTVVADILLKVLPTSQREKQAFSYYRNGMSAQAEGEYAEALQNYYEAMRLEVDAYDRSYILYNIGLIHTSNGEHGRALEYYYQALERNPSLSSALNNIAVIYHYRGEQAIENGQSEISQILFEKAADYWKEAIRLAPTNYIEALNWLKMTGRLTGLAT
Put plainly: affinity purification with mass spectrometry; affinity-purified Ycf3-HA preparation, gel bands digested with trypsin, LC-MS/MS.

The target in test [2] is T2, Ycf4 fused with HA tag at the N-terminus (HA-Ycf4) (C. reinhardtii) (UniProt O20030).
T2 sequence: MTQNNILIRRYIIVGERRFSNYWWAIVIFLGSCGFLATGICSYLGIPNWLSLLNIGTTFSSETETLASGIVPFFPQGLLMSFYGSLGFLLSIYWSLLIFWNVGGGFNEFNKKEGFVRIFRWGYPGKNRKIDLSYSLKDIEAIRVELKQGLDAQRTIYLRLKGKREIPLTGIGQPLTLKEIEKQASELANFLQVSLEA
Put plainly: affinity purification with mass spectrometry; affinity-purified HA-Ycf4 preparation, gel bands digested with trypsin, LC-MS/MS.

For PsaB (from UniProt P09144 1-735), the binding entry in test [1] and in test [2] was “binds” in each case.

Source of the values: article PMC6015050.
